No constants are given. Whether binding was seen depends on the method and setting. Binding seen in cells or lysates may run through a third protein. Some entries that bind do so weakly or less than the wild type.
Legend:
[1] = target: C3a-peptide with 3XFlag tag (pcDNA3.1-C3a-peptide-Flag) (human); assay: co-IP; 293 T cells transfected with pcDNA3.1-C3a-peptide-Flag or pcDNA3.1-C3a-Flag; anti-Flag magnetic beads; blot for C3aR
[2] = target: C3a protein with 3XFlag tag (pcDNA3.1-C3a-Flag) (human) (UniProt P01024); assay: as above

The chains behind the UniProt entries cited, without tags or fusion partners. Residues count along the entry.
UniProt P01024, residues 672-748: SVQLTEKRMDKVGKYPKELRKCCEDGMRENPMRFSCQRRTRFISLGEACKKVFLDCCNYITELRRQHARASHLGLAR

B1: C3a receptor (C3aR) in 293 T cells (receptor, UniProt Q16581 1-482)
chain: MASFSAETNSTDLLSQPWNEPPVILSMVILSLTFLLGLPGNGLVLWVAGLKMQRTVNTIWFLHLTLADLLCCLSLPFSLAHLALQGQWPYGRFLCKLIPSIIVLNMFASVFLLTAISLDRCLVVFKPIWCQNHRNVGMACSICGCIWVVAFVMCIPVFVYREIFTTDNHNRCGYKFGLSSSLDYPDFYGDPLENRSLENIVQPPGEMNDRLDPSSFQTNDHPWTVPTVFQPQTFQRPSADSLPRGSARLTSQNLYSNVFKPADVVSPKIPSGFPIEDHETSPLDNSDAFLSTHLKLFPSASSNSFYESELPQGFQDYYNLGQFTDDDQVPTPLVAITITRLVVGFLLPSVIMIACYSFIVFRMQRGRFAKSQSKTFRVAVVVVAVFLVCWTPYHIFGVLSLLTDPETPLGKTLMSWDHVCIALASANSCFNPFLYALLGKDFRKKARQSIQGILEAAFSEELTRSTHCPSNNVISERNSTTV
B1 was tested, and the binding [1] was “binds” and the binding [2] was “binds”.
